Experimental data taken from the supplement of paper PMC10849652.
This is one part of the list.

Amino acid sequences for entries named in this document (tags omitted). A change or cut given only in a name is not applied to a line headed by its entry.
UniProt Q9BRQ6: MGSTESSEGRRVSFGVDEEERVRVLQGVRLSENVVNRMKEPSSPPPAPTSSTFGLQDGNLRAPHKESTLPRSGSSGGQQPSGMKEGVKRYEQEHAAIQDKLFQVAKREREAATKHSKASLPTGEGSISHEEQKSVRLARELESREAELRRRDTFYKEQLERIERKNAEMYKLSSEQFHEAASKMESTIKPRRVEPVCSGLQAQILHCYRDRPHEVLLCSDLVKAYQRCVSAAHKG
UniProt Q7Z460: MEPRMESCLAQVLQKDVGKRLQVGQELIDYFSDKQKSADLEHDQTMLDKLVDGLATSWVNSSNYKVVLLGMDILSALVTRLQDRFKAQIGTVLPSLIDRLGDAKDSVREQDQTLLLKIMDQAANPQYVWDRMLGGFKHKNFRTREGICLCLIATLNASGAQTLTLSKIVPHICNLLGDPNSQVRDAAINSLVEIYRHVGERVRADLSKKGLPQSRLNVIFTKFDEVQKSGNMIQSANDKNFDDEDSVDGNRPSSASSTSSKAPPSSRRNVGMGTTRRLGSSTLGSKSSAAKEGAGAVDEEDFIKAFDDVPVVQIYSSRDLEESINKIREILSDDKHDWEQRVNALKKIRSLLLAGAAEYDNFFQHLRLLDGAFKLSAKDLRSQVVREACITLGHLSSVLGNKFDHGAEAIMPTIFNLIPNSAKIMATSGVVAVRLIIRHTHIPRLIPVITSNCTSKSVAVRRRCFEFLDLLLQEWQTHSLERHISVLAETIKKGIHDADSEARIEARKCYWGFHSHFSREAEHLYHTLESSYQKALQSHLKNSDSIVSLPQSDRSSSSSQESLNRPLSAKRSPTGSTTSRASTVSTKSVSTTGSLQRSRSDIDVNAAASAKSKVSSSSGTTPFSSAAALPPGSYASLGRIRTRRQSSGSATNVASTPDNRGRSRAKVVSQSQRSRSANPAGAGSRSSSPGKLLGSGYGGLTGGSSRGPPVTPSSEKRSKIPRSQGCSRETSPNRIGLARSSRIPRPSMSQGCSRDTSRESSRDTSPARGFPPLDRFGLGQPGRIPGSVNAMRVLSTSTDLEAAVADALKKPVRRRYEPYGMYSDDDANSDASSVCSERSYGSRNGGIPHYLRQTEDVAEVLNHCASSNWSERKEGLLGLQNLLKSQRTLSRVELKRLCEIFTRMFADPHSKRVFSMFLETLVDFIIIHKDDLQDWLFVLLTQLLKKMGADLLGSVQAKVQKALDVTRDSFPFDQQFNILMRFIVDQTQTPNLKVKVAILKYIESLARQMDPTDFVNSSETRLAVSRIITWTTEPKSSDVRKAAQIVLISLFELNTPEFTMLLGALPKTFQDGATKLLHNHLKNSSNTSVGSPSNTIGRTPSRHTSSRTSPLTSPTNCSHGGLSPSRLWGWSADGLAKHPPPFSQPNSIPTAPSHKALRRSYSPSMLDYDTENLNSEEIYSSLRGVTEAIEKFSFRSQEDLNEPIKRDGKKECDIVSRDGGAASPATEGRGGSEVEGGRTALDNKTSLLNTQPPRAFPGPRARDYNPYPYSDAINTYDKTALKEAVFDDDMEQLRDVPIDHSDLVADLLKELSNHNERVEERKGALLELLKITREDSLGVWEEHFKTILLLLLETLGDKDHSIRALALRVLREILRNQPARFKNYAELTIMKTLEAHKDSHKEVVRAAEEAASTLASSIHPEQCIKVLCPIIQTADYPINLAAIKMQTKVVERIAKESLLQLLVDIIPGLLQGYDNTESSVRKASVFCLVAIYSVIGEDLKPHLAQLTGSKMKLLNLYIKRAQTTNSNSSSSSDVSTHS
UniProt O76031, whole entry, looked up: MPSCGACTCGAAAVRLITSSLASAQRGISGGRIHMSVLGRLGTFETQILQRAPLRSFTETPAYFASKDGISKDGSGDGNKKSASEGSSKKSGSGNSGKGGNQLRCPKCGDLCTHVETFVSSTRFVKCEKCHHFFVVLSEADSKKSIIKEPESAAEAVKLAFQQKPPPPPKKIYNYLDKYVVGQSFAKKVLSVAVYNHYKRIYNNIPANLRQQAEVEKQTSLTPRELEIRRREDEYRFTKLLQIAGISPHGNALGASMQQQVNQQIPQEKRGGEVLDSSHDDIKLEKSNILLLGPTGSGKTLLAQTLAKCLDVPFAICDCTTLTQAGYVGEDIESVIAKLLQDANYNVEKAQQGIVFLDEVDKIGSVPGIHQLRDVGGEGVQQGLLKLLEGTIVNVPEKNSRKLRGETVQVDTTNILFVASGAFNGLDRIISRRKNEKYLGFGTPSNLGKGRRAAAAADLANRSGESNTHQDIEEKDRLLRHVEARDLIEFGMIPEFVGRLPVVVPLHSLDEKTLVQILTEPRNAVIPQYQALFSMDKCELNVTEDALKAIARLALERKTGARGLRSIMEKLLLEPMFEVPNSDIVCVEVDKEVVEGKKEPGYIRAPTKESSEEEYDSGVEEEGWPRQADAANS
UniProt Q92989: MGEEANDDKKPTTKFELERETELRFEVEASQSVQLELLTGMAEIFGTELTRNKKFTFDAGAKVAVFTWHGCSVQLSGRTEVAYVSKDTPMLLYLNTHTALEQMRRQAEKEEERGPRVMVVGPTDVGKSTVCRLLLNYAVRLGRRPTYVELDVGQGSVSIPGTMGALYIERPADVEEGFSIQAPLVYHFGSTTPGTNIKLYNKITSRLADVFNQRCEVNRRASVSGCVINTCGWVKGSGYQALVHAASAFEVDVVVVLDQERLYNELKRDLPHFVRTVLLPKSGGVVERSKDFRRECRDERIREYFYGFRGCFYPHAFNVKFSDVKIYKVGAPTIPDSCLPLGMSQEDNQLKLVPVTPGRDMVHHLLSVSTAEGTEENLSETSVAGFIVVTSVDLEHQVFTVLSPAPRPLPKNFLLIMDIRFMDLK
UniProt P0C7P0: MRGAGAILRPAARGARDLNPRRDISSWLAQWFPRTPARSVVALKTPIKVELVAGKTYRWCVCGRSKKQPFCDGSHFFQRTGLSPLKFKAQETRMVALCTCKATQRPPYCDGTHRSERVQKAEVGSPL
UniProt Q3L8U1: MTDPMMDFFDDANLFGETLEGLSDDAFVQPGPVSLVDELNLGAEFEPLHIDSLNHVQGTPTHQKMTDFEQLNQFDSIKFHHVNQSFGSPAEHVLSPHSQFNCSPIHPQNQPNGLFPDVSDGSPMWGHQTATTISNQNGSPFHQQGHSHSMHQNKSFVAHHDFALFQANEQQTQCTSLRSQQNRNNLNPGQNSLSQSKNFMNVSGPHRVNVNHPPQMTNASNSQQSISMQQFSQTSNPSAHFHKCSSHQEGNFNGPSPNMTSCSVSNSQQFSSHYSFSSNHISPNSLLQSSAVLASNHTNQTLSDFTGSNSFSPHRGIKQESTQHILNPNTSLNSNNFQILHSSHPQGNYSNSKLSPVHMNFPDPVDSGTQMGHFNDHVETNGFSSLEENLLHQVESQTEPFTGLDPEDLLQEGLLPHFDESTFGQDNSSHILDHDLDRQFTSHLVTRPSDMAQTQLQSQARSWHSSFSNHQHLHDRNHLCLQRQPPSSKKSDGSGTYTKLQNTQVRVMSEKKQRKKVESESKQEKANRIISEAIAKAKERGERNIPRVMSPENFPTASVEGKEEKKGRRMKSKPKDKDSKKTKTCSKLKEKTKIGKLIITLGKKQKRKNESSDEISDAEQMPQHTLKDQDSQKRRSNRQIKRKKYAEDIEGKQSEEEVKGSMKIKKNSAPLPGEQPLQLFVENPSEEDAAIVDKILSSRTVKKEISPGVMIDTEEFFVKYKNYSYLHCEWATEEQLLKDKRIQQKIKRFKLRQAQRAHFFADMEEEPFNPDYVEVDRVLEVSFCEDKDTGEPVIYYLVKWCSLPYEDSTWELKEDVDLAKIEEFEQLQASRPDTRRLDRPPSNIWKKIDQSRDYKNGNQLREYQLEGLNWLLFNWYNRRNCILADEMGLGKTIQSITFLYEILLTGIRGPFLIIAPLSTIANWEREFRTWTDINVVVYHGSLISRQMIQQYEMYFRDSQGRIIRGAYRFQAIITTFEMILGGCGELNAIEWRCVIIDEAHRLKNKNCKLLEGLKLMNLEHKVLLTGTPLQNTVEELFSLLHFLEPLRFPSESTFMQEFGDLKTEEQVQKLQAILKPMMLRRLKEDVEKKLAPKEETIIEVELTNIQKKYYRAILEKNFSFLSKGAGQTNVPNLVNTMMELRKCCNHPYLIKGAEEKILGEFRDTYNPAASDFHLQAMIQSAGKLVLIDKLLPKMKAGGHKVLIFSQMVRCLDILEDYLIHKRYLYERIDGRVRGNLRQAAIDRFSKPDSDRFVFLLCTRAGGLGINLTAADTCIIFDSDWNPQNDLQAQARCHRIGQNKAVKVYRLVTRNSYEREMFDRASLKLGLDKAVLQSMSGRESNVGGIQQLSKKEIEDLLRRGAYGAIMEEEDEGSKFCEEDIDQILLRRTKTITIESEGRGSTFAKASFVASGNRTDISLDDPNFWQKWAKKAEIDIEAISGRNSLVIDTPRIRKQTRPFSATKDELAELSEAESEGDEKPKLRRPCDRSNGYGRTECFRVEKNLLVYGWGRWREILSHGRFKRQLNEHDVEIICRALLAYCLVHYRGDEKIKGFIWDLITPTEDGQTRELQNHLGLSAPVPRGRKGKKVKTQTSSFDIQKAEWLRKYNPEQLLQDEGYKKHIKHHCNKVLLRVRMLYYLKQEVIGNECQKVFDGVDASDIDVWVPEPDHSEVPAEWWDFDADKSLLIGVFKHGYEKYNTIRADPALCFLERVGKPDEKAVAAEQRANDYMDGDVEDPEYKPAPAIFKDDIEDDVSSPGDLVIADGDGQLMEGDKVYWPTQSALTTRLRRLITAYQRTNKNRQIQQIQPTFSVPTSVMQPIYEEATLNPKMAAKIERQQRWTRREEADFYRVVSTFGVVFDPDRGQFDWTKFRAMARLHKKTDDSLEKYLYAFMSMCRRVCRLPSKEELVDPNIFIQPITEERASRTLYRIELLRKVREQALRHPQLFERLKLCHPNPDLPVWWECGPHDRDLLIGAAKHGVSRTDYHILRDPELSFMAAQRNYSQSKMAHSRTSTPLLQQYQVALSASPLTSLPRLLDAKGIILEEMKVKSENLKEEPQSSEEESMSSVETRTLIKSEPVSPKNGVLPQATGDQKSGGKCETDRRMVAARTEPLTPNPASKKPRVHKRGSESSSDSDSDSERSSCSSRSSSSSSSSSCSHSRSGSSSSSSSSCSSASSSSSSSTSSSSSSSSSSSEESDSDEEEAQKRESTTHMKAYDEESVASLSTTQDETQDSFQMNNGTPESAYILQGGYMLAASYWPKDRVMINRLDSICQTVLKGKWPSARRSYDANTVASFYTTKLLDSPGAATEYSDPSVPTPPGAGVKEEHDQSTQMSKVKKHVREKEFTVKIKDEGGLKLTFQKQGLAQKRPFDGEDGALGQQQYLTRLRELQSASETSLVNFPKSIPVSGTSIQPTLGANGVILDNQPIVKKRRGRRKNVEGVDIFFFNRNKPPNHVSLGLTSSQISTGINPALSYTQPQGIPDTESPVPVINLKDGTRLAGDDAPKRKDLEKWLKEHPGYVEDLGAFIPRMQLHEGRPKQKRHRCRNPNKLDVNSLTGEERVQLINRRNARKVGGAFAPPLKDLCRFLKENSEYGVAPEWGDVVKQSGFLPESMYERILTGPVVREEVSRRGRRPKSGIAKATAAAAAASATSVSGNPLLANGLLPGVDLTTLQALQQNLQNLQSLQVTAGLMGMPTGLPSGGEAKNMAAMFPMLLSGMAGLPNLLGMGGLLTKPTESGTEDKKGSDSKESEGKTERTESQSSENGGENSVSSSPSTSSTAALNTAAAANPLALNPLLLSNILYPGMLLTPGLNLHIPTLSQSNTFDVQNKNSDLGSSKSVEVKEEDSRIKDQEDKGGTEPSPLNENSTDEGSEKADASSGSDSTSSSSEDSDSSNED
UniProt P0CG13, whole entry, looked up: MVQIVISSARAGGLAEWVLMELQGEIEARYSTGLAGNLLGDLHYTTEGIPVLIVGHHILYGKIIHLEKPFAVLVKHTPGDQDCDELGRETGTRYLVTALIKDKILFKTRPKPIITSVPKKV
UniProt Q9NWW5: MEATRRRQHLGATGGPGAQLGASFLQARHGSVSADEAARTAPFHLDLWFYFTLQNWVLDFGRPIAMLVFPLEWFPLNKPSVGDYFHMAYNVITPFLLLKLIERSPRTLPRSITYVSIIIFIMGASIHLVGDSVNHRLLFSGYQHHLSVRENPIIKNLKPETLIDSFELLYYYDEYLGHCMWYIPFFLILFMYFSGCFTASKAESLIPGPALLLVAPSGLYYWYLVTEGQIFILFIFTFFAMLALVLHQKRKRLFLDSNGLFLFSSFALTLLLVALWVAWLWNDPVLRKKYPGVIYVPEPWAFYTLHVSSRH

Columns and labels:
Experiment in all cases: log2 fold change, soluble protein after heating vs DMSO (PISA); higher = thermal stabilisation; K562 lysate, 10 uM; active = over 0.2 and 3.5 SD of the protein, either way, in both replicates (recomputed)
[1] = compound: C#Cc1cccc(Nc2ncnc3cc(OCCOC)c(OCCOC)cc23)c1 [erlotinib]
Summary of the method: (§1)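 Pellets of K562 cells were dounce-homogenised in PBS pH 7.4 with 1 mM MgCl2, and the crude extract was held at 1 mg/mL protein for a 30 min treatment with 10 μM compound. Aliquots were heated for 3 min over 48°C-58°C and pooled before NP-40 was added to 0.5% at 4°C. The supernatant from 21,000xg for 90 min was quantified by TMTpro 16plex LC-MS/MS with channel sums equalised. Values are reported from duplicates as log-two fold change in thermal stability relative to solvent controls.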

[2] = compound: C/C(=N\NC(=O)C1=CC(=CC=C1)S(=O)(=O)N2CCOCC2)/C3=C(C=CC(=C3)Cl)O
Summary of the method: as §1

[3] = compound: C1=CC(=CC=C1C2=NC3=C(N2)C=C(C=C3)C(=O)N)OC4=CC=C(C=C4)Cl
Summary of the method: as §1

[4] = compound: C1=CC2=C(C=CC(=C2)/C=C\3/C(=O)NC(=NCC4=CC=CS4)S3)N=C1
Summary of the method: as §1

[5] = compound: C1=CC2=NC=CN=C2C=C1/C=C/3\C(=O)NC(=O)S3
Summary of the method: as §1

[6] = compound: C1=CC=C(C=C1)C2=NC(=C(N2)C3=CC=NC=C3)C4=CC(=C(C=C4)Cl)O
Summary of the method: as §1

[7] = compound: C1=CC=C2C(=C1)C3=NNC4=CC=CC(=C43)C2=O
Summary of the method: as §1

[8] = compound: C1CCN(C1)C(=O)NC2=CC=CC(=C2)NC3=NC=C(C(=N3)NCCC4=CN=CN4)Br
Summary of the method: as §1

[9] = compound: C1CN(CCC1(CC2=CC=C(C=C2)Cl)N)C3=NC=NC4=C3C=CN4
Summary of the method: as §1

[10] = compound: C1COCCN1CCN2C3=CC=CC=C3N=C2NC(=O)C4=CC(=CC=C4)[N+](=O)[O-] [IRAK-1-4 Inhibitor I]
Summary of the method: as §1

[11] = compound: CC(=O)c1cnc2ccc(-c3cc(Cl)c(O)c(Cl)c3)nc2c1N[C@H]1CC[C@H](CN(C)C)CC1
Summary of the method: as §1

[12] = compound: CC(C)(C)Cn1c(N)nc2ccc(-c3[nH]c(C(C)(C)C)nc3-c3ccc(F)cc3)nc21 [ralimetinib]
Summary of the method: as §1

[13] = compound: CC(C)(O)CC(=O)NCCn1ccc2ncnc(Nc3ccc(Oc4cccc(C(F)(F)F)c4)c(Cl)c3)c21
Summary of the method: as §1

[14] = compound: CC(C)C1=C2N=C(C=C(N2N=C1)NCC3=CC=CC=C3)NCCCCCCN
Summary of the method: as §1

[15] = compound: CC1=C(C(CC(=O)N1)C2=CC=C(C=C2)C(F)(F)F)C(=O)NC3=C(C=C4C(=C3)C=NN4)F
Summary of the method: as §1

[16] = compound: CC1=C(C2=C(C=C1)C(=O)C3=CC=CC=C3N2CCCN)C
Summary of the method: as §1

[17] = compound: CC1=C(C=C(C=C1)NC(=O)C2=CC(=CC=C2)C(C)(C)C#N)NC3=CC4=C(C=C3)N=CN(C4=O)C
Summary of the method: as §1

[18] = compound: CC1=C(C=C(C=C1)NC(=O)C2=CC(=CC=C2)N(C)C)NC(=O)C3=CC=C(C=C3)O
Summary of the method: as §1

[19] = compound: CC1=CC=C(C=C1)SC2=C3C=C(SC3=CN=C2)C(=O)N
Summary of the method: as §1

[20] = compound: C=CC(=O)N1CCC[C@@H](n2nc(-c3ccc(Oc4ccccc4)cc3)c3c(N)ncnc32)C1 [ibrutinib]
Summary of the method: as §1

Measured: log2 fold change

CLIP1 isoform 1 (UniProt P30622)
inactive: [1] -0.025 | [2] -0.026 | [3] 0.019 | [4] -0.005 | [5] -0.018 | [6] 0.005 | [7] 0.002 | [8] 0 | [9] -0.012 | [10] 0.007 | [11] -0.005 | [12] 0.004 | [13] 0 | [14] -0.008 | [15] -0.01 | [16] -0.016 | [17] 0.006 | [18] 0.003 | [19] -0.004

CHCHD6 (UniProt Q9BRQ6)
inactive: [1] -0.092 | [2] -0.156 | [3] -0.215 | [4] 0.094 | [5] -0.026 | [6] 0.04 | [7] -0.026 | [8] 0.075 | [9] 0.042 | [10] -0.03 | [20] 0.036 | [11] -0.05 | [12] -0.068 | [13] -0.291 | [14] -0.049 | [16] -0.005 | [17] -0.001 | [18] 0.092 | [19] 0.194

CLASP1 (UniProt Q7Z460)
inactive: [1] 0.042 | [2] 0.082 | [3] -0.029 | [4] -0.022 | [5] 0.01 | [6] 0.026 | [7] -0.041 | [8] -0.035 | [9] 0.02 | [10] 0.029 | [11] 0.013 | [12] 0.02 | [13] 0.024 | [14] 0.01 | [15] 0.018 | [16] 0.004 | [17] 0.02 | [18] 0.036 | [19] 0.001

CLPX (UniProt O76031)
inactive: [1] -0.002 | [2] -0.033 | [3] 0.011 | [4] 0.044 | [5] 0.043 | [6] 0.012 | [7] 0.009 | [8] 0.013 | [9] -0.003 | [10] 0.02 | [11] -0.001 | [12] -0.01 | [13] 0 | [14] 0.016 | [15] 0 | [16] -0.05 | [17] -0.008 | [18] 0.019 | [19] -0.01

CLP1 (UniProt Q92989)
inactive: [1] 0.024 | [2] 0.027 | [3] -0.011 | [4] -0.001 | [5] -0.045 | [6] -0.014 | [7] 0.034 | [8] -0.024 | [9] -0.033 | [10] -0.045 | [11] 0.062 | [12] 0.006 | [13] 0.003 | [14] 0.012 | [15] 0.023 | [16] 0.001 | [17] -0.02 | [18] -0.037 | [19] 0.01

CISD3 (UniProt P0C7P0)
inactive: [1] -0.014 | [2] 0.004 | [3] 0.086 | [4] -0.018 | [6] -0.025 | [7] -0.104 | [8] -0.018 | [9] 0.028 | [10] -0.004 | [11] -0.006 | [12] -0.048 | [13] -0.047 | [14] -0.008 | [15] 0.006 | [16] -0.027 | [17] -0.004 | [18] -0.02 | [19] -0.052

CHD9 (UniProt Q3L8U1)
inactive: [1] -0.046 | [2] 0.169 | [3] -0.167 | [4] 0.191 | [6] 0.043 | [7] -0.059 | [10] 0.016 | [12] -0.117 | [13] -0.147 | [14] -0.074 | [15] 0.212 | [16] 0.038 | [17] -0.031 | [18] -0.023

Copied from the listing (two entries):
CISD3 (UniProt P0C7P0)
inactive: [1] -0.014 | [2] 0.004 | [3] 0.086 | [4] -0.018 | [6] -0.025 | [7] -0.104 | [8] -0.018 | [9] 0.028 | [10] -0.004 | [11] -0.006 | [12] -0.048 | [13] -0.047 | [14] -0.008 | [15] 0.006 | [16] -0.027 | [17] -0.004 | [18] -0.02 | [19] -0.052

CHD9 (UniProt Q3L8U1)
inactive: [1] -0.046 | [2] 0.169 | [3] -0.167 | [4] 0.191 | [6] 0.043 | [7] -0.059 | [10] 0.016 | [12] -0.117 | [13] -0.147 | [14] -0.074 | [15] 0.212 | [16] 0.038 | [17] -0.031 | [18] -0.023

Additional results

CLASP1 isoform 4 (UniProt Q7Z460)
inactive: [1] 0.199 | [2] -0.041 | [3] 0.04 | [4] -0.262 | [7] -0.029 | [14] -0.124 | [15] -0.226

CHTF8 (UniProt P0CG13)
inactive: [1] -0.005 | [3] -0.107 | [5] -0.068 | [6] -0.01 | [8] -0.044 | [9] -0.022 | [10] -0.044 | [20] -0.06 | [11] -0.149 | [12] 0.127 | [13] -0.087 | [14] -0.054 | [15] 0.045 | [16] 0.068 | [17] -0.01 | [18] 0.061 | [19] 0.096

CLN6 (UniProt Q9NWW5)
inactive: [1] 0.094 | [2] -0.046 | [3] -0.055 | [4] 0.169 | [5] -0.111 | [6] 0.225 | [7] -0.035 | [8] 0.081 | [9] -0.019 | [10] -0.036 | [12] -0.051 | [13] -0.056 | [14] 0 | [15] 0.026 | [16] 0.051 | [17] 0.119 | [18] -0.064

CHEK2 (UniProt O96017)
inactive: [1] -0.042 | [2] -0.006 | [4] 0.05 | [5] 0.053 | [6] 0.018 | [7] 0.148 | [8] 0.11 | [9] -0.035 | [10] -0.031 | [20] 0.04 | [11] -0.043 | [12] -0.011 | [13] 0.081 | [14] 0.211 | [15] 0.013 | [16] -0.002 | [17] -0.041 | [18] 0.073 | [19] 0.013

CLINT1 isoform 3 (UniProt Q14677)
inactive: [1] -0.062 | [2] -0.074 | [3] 0.004 | [4] -0.001 | [5] -0.026 | [6] -0.095 | [7] 0.02 | [8] -0.101 | [9] -0.022 | [11] -0.019 | [12] -0.027 | [13] 0.011 | [14] 0.066 | [15] 0.037 | [16] 0.007 | [17] -0.053 | [18] -0.071 | [19] -0.028
